At least one read-out could not be matched to a standard name with certainty.
Test system: bacteria of endotracheal aspirate, sputum, BAL, wound swab from patients with ventilator associated pneumonia
Assay: Signs of bacterial growth on multi-well agar test system supplemented with antibiotics (naked eye or microscopy)
Type: cell-based
Protocol: Endotracheal aspirate (n=3), sputum (n=3), BAL (n=2), wound swab (n=3) from patients with ventilator associated pneumonia were resuspended in PBS and 0.15 μL were plated on 24 well plate test system filled with Mixed medium (Columbia agar +Pepted Meat agar) (MM), Luria Broth (LB) agar, Pepted Meat agar (PMA), Columbia agar (CA), or Schaedler agar (SA).
Two wells were antibiotic free.
Biosamples were plated to the medium with a sterile swab with a slight pressure to the agar and making circular movements. Plates was incubated at 37 C and the analysis of the of microbial growth was monitored every 15 minutes from […] to 5 h, then hourly from 5 h to 8 h and then at 18 and 24 h post plating with a naked eye or with an AmScope microscope on 20× magnification with 12 mp camera.
Three methods (algorithms) how to analyze bacterial growth were used.
Method (Algorithm) #1. Lab technician, analyzed the appearance of bacterial growth by comparing the signs of bacterial growth in each well supplemented with antibiotic(s) at certain timepoint, with the signs of bacterial growth in the same well at previous time point(s).
Method (Algorithm)#2. Lab technician analyzed the appearance of bacterial growth by comparing the signs of bacterial growth in each well supplemented with antibiotic(s) with bacterial growth in antibiotic-free control
Method (Algorithm) #3. Lab technician analyzed the absence of bacterial growth in the wells in fixed time period of 3.0 h, 3.5 h; 4 h and 24 h.

Measured: Mean hour at which bacterial growth became visible on the wells supplemented with a certain antibiotic

CN[C@H](CC(C)C)C(=O)N[C@H]1C(=O)N[C@@H](CC(N)=O)C(=O)N[C@H]2C(=O)N[C@H]3C(=O)N[C@H](C(=O)N[C@H](C(=O)O)c4cc(O)cc(O)c4-c4cc3ccc4O)[C@H](O)c3ccc(c(Cl)c3)Oc3cc2cc(c3O[C@@H]2O[C@H](CO)[C@@H](O)[C@H](O)[C@H]2O[C@H]2C[C@](C)(N)[C@H](O)[C@H](C)O2)Oc2ccc(cc2Cl)[C@H]1O [Vancomycin]
4.5 h: naked eye examination, Method (Algorithm) #1, SA medium, samples resistant to the antibiotic
6 h: naked eye examination, Method (Algorithm) #2, PMA medium, samples resistant to the antibiotic
5 h: naked eye examination, Method (Algorithm) #2, CA medium, samples resistant to the antibiotic | naked eye examination, Method (Algorithm) #2, LB medium, samples resistant to the antibiotic | naked eye examination, Method (Algorithm) #2, SA medium, samples resistant to the antibiotic
3.5 h: microscopy examination, Method (Algorithm) #1, CA medium | microscopy examination, Method (Algorithm) #1, LB medium | microscopy examination, Method (Algorithm) #1, MM medium | microscopy examination, Method (Algorithm) #1, PMA medium | naked eye examination, Method (Algorithm) #1, CA medium, samples resistant to the antibiotic | naked eye examination, Method (Algorithm) #1, LB medium, samples resistant to the antibiotic | naked eye examination, Method (Algorithm) #1, MM medium, samples resistant to the antibiotic
4 h: microscopy examination, Method (Algorithm) #1, SA medium | microscopy examination, Method (Algorithm) #2, CA medium | microscopy examination, Method (Algorithm) #2, LB medium | microscopy examination, Method (Algorithm) #2, MM medium | microscopy examination, Method (Algorithm) #2, PMA medium | microscopy examination, Method (Algorithm) #2, SA medium | naked eye examination, Method (Algorithm) #1, PMA medium, samples resistant to the antibiotic | naked eye examination, Method (Algorithm) #2, MM medium, samples resistant to the antibiotic

— US20240182945A1, “PRODUCTS FOR REGULATION OF EUKARYOTIC AND MICROBIAL CELLS GROWTH” (priority 2021, published 2024)
